According to the supplement of paper PMC10398353:
Where “and” joins values, the source holds several entries; their conditions need not be identical. Identical values can stand only once. Counter-ions that a name gives are not always drawn. ± gives the standard deviation of the averaged measurements. This is one part of the list. Single values of this set are uncertain.

System: Salmonella enterica serovar Typhimurium ST313 D23580
Test: normalized bacterial growth (OD600 20 h minus 0 h, interquartile-mean normalized) (fraction of plate interquartile mean); higher = more bacterial growth (less inhibition)
Conditions: LPM (pH 5.8, low phosphate, low Mg2+), concentration: 10 µM, temperature: 37 °C

SMILES	normalized bacterial growth
CCCN1CCC[C@@H]2Cc3nc(N)ncc3C[C@H]21 [Quinelorane dihydrochloride]	1.04
COc1ccc2c(c1)[C@]13CCCC[C@@H]1[C@H](C2)N(C)CC3 [Dextromethorphan hydrobromide monohydrate]	1.06 ± 0.045
COc1ccc2c(c1)[C@]13CCCC[C@@H]1[C@H](C2)N(C)CC3	1.07
C[C@H]1O[C@@H](O[C@H]2[C@@H](O)C[C@H](O[C@H]3[C@@H](O)C[C@H](O[C@H]4CC[C@@]5(C)[C@H](CC[C@@H]6[C@@H]5CC[C@]5(C)[C@@H](C7=CC(=O)OC7)[C@@H](O)C[C@]65O)C4)O[C@@H]3C)O[C@@H]2C)C[C@H](O)[C@@H]1O	0.712
C=C[C@H]1CN2CC[C@H]1C[C@H]2[C@H](O)c1ccnc2ccccc12	0.96 and 1.14
CC1=NCCc2c1[nH]c1cc(O)ccc21 [Harmalol hydrochloride dihydrate]	0.977
CC1=NCCc2c1[nH]c1cc(O)ccc21	0.816 and 1.1
CNCCc1ccc(O)c(O)c1 [N-Methyldopamine hydrochloride]	1.16
Clc1cnc(Oc2ccc(Oc3ncc(Cl)cc3Cl)cc2)c(Cl)c1	0.963
COC[C@H]1OC(=O)c2coc3c2[C@@]1(C)C1=C(C3=O)[C@@H]2CCC(=O)[C@@]2(C)C[C@H]1OC(C)=O	0.739
CC1(C)C2(Cl)C(Cl)C(Cl)C(Cl)(C(Cl)Cl)C1(Cl)C2Cl (stereo not drawn)	1
N[C@@H](Cn1oc(=O)[nH]c1=O)C(=O)O	0.787
CC(Oc1ccc(Cl)cc1Cl)C(=O)O (stereo not drawn)	0.832
NC(N)=NOCC[C@H](N)C(=O)O [L-Canavanine]	1.01
NC(N)=NOCC[C@H](N)C(=O)O ["Canavanine sulfate monohydrate (L,+)"]	0.968
NC(N)=NOCC[C@H](N)C(=O)O [L-Canavanine sulfate]	1.15
CN1[C@@H]2CCC[C@H]1CC(=O)C2	0.967
CN1[C@@H]2CCC[C@H]1CC(=O)C2 [Pseudopelletierine hydrochloride]	1.07
S=C(NC1CCCCC1)N1CCC(c2cnc[nH]2)CC1 [Thioperamide maleate]	1.027 ± 0.0069
COC(=O)COc1ccc(Cl)cc1Cl	1.08
C[C@]12CC[C@H]3[C@@H](CC[C@]4(O)C[C@@H](O)CC[C@]34C=O)[C@@]1(O)CC[C@@H]2C1=CC(=O)OC1 [Strophanthidin]	0.824
C[C@]12CC[C@H]3[C@@H](CC[C@]4(O)C[C@@H](O)CC[C@]34C=O)[C@@]1(O)CC[C@@H]2C1=CC(=O)OC1	0.721
CCN(CC)C(=O)NC1CC2c3cccc4[nH]cc(c34)CC2N(C)C1 (stereo not drawn) [R(+)-Terguride]	0.65
